In PMC7504044:
These are yes or no findings as the source states them, for the method shown. In cells and extracts the contact can be indirect. Some binding calls cover weakened binding; strength is not graded here. Where a sequence is shown, tags or fusion partners need not be part of it.

What was measured:
[1] = target: T1, GFP–TM–Eme (transmembrane domain of emerin fused to GFP) (human) (UniProt P50402); experiment: co-IP; GFP-Trap beads on lysates of C2C12 cells transfected with GFP fusions; western blot for endogenous emerin or β-DG
T1 sequence: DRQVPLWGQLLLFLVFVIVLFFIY

[2] = target: T2, HA-tagged emerin mutant ΔVal236–Phe241 (human) (UniProt P50402); experiment: co-IP; anti-HA antibodies and protein G-agarose on whole cell extracts (1 mg) of C2C12 cells transfected with HA-tagged emerin constructs, 4 °C, washes with RIPA buffer (300-mM NaCl); western blot for endogenous β-DG
T2 sequence: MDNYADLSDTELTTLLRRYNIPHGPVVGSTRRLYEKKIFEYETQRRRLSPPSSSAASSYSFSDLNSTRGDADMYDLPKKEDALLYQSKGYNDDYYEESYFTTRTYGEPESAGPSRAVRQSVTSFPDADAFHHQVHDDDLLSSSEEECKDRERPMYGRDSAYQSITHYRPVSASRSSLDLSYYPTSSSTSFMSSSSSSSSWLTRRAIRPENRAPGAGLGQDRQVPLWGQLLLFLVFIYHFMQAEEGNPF

B1: endogenous β-DG of C2C12 myoblasts (protein, UniProt Q62165 652-893)
chain: SIVVEWTNNTLPLEPCPKEQIIGLSRRIADENGKPRPAFSNALEPDFKALSIAVTGSGSCRHLQFIPVAPPSPGSSAAPATEVPDRDPEKSSEDDVYLHTVIPAVVVAAILLIAGIIAMICYRKKRKGKLTLEDQATFIKKGVPIIFADELDDSKPPPSSSMPLILQEEKAPLPPPEYPNQSMPETTPLNQDTVGEYTPLRDEDPNAPPYQPPPPFTAPMEGKGSRPKNMTPYRSPPPYVPP
binding [1]: no binding | binding [2]: binds
